In PubChem BioAssay AID2685 (National Center for Advancing Translational Sciences (NCATS), 2010) one finds cell number change and AC50 data, which are given here for 59 molecules.

A short description of this test: qHTS Assay for Lipid Storage Modulators in Drosophila S3 Cells.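 For cell number change: cells counted by Cell Tracker Red CMTPX staining in the red channel.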 The settings on record: BODIPY lipid droplet fluorescence, 18-24 h; for cell number change: measured here: cell count max response, cells fed with added oleic acid. Summed up: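 Drosophila S3 cells got compounds at several concentrations plus oleic acid (400 uM solution). Laser-scanning cytometry with 488 nm excitation read lipid droplets at 500-530 nm and cells at 575-640 nm. Percent activity was relative to 20 uM Triacsin C.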

Where [1] appears, read: measured here: lipid fluorescence (Fed channel) AC50, cells fed with added oleic acid.
The mark [2] stands for this setting: measured here: cell number channel AC50, cells fed with added oleic acid.

The other results are listed elsewhere or left out. The main result of the screen is listed elsewhere. These columns were measured beside it and carry no call. The list favours compounds with an active or inconclusive main result. Potencies come from curve fits of mixed quality, noted in brackets.

As to `CCCn1c(C(C)NS(=O)(=O)c2ccccc2)n[nH]c1=S` (stereo not drawn), the cell number change is 4.96%.
With `CCOc1cc(C)c(Cl)cc1S(=O)(=O)N(CC)CC`, the cell number change was -1.76%. The concentration at half-maximal activity (AC50) (commonly the concentration giving half of the maximal activity seen) under setting [1] is 13 µM [rising, partial curve].
In the case of `CC12CCC(=O)N1C(C(=O)NNC(=O)c1cccc(Cl)c1)CS2` (stereo not drawn), the cell number change worked out at 1.5%.
On to `CCSc1nnc(NC(=O)C2CCN(S(=O)(=O)c3cc(C(F)(F)F)ccc3Cl)CC2)s1`, for which the cell number change was 38.7%. For the same molecule, under setting [2], the AC50 is 7.31 µM [rising, partial curve].
Turning to `CC(=O)OC(/C(O)=C(\C#N)c1nc2ccccc2[nH]1)c1ccccc1` (stereo not drawn), the cell number change was -9.19%.
As to `CCc1ccc(Cn2nnc(C(=O)NCc3ccccc3OC)c2N)cc1`, the cell number change turned out to be 9.69%. Further, under setting [1], the AC50 was 0.146 µM [rising, full curve, poor fit].
Take `O=C(Cc1cccs1)Nc1cccc([N+](=O)[O-])c1`: the cell number change was -37.9%. Besides, the half-maximal activity concentration (AC50) under setting [2] was 1.84 µM [falling, full curve]. For the same molecule, the half-maximal activity concentration (AC50) under setting [1] is 1.3 µM [falling, partial curve].
On to `CCCCC(=O)Nc1ccc(C(=O)NCCc2ccccc2)cc1`, for which the cell number change worked out at 7.4%. Also, the AC50 under setting [1] was 0.82 µM [rising, full curve, poor fit].
On to `CN(CC(=O)Nc1cccc(F)c1)C(=O)Cn1cnc2c1c(=O)n(C)c(=O)n2C`, for which the cell number change is 0.901%. The half-maximal activity concentration (AC50) under setting [1] is 0.651 µM [falling, single point].
As for `COc1cccc(NC(=O)NC2CCN(CC(=O)Nc3ccccc3[N+](=O)[O-])CC2)c1`, the cell number change is 0.87%. Moreover, the AC50 under setting [1] was 29.1 µM [falling, partial curve, poor fit].
Regarding `CCCCOC(=O)C1[C@H]2C(=O)N(Cc3cccs3)C[C@]23C=C[C@H]1O3` (stereo partly drawn), the cell number change was 39.7%. Besides, the AC50 under setting [2] is 0.00461 µM [rising, full curve, poor fit].
Regarding `CCCCn1c(N)c(N(CC)C(=O)c2ccco2)c(=O)[nH]c1=O`, the cell number change was 4.03%. Further, under setting [1], the AC50 is 0.146 µM [rising, full curve, poor fit].
Take `N/C(=N\OC(=O)/C=C/c1ccccc1Cl)c1ccccn1`: the cell number change stood at 24.7%. The half-maximal activity concentration (AC50) under setting [1] was 3.66 µM [rising, full curve].
Consider `COc1ccc(C2=NS(=O)(=O)N(C)C(C(=O)NCc3ccccn3)=C2)cc1`, for which the cell number change amounted to 2.99%. The AC50 under setting [1] was 32.6 µM [rising, single point].
As to `O=C(Cc1ccc(S(=O)(=O)N2CCOCC2)s1)N1CCN(S(=O)(=O)c2cccc([N+](=O)[O-])c2)CC1`, the cell number change is 4.77%. The AC50 under setting [1] is 23.1 µM [rising, single point].
On to `CCOC(=O)c1c(CN2CCCCC2C)oc2ccc(OC)cc12` (stereo not drawn), for which the cell number change is -11%. The AC50 under setting [1] was 1.64 µM [rising, partial curve, poor fit].
Regarding `Cc1ccc(NC(=S)N(CCCN2CCOCC2)Cc2ccccn2)cc1Cl`, the cell number change was found to be 96.3%. The AC50 under setting [2] was 29.1 µM [rising, single point].
Regarding `COc1cc(NC(=S)N2CCN(S(C)(=O)=O)CC2)cc(OC)c1`, the cell number change turned out to be 23.1%. The AC50 under setting [1] is 5.17 µM [falling, single point].
As to `CC(C)CC(=O)CN1C(=O)C2(OCCO2)c2ccccc21`, the cell number change is -78.4%. For the same molecule, the AC50 under setting [2] is 23.1 µM [falling, partial curve, poor fit].
`CC12CCC(C(=O)Nc3ccccc3)(C/C1=N\O)C2(C)C` (stereo not drawn): the cell number change is -11.9%. For the same molecule, under setting [2], the AC50 is 0.92 µM [falling, partial curve]. Besides, the AC50 under setting [1] was 1.3 µM [falling, partial curve].
As for `O=C1CN=C(Nc2ccc(Cl)cc2)N1c1ccccc1`, the AC50 under setting [2] was 6.51 µM [rising, single point].
For `Cc1ccc(-c2csc3nc(CN(C)Cc4ccccc4)[nH]c(=O)c23)cc1`, the cell number change was 44%. Also, the AC50 under setting [2] is 6.51 µM [rising, partial curve, poor fit]. Under setting [1], the AC50 was 6.51 µM [rising, single point].
Turning to `CC(=O)Nc1ccc(NC(=O)c2ccc(NC(=O)c3ccccc3)cc2)cc1`, the cell number change turned out to be 5.41%. Further, under setting [2], the AC50 is 5.17 µM [rising, single point].
In the case of `O=C(NNC(=O)C1[C@H]2CCCC[C@@H]12)NC1CCCCC1` (stereo partly drawn), the cell number change is -4.03%. In addition, the AC50 under setting [1] is 0.103 µM [rising, full curve, poor fit].
In the case of `CCOc1cccc(C(=O)Nc2ccccc2N2CCN(C(=O)C(C)C)CC2)c1`, the cell number change was determined as 2.74%. Under setting [1], the concentration at half-maximal activity (AC50) is 29.1 µM [rising, partial curve].
With `COc1cc(NC(=S)NC(=O)c2ccccc2F)ccc1NC(=O)c1ccco1`, the cell number change is -1.15%. Under setting [1], the AC50 is 0.13 µM [rising, full curve, poor fit].
For the molecule `CCN1C(=O)/C(=C/c2cnn(C)c2C)SC1=S`, the cell number change was 23.1%. Besides, the AC50 under setting [1] is 0.082 µM [rising, full curve, poor fit].
Turning to `CC(C)(C)C(=O)CC(=O)Nc1ccc(Cl)c(N)c1`, the cell number change was -13.7%. Further, the AC50 under setting [1] was 0.0651 µM [rising, full curve, poor fit].
In the case of `Cc1cc(=O)oc(C)c1C(=O)N1CCN(C)CC1`, the cell number change amounted to 3.09%. Moreover, the concentration at half-maximal activity (AC50) under setting [1] is 0.58 µM [falling, full curve].
As for `O=C(Nc1ccc(Cl)cc1F)C1CC(=O)N(Cc2ccco2)C1` (stereo not drawn), the AC50 under setting [2] was 6.51 µM [rising, single point].
Take `COC(=O)c1cc(COc2ccc3ccc(=O)oc3c2)c(C)o1`: the cell number change was 0.828%. Moreover, the AC50 under setting [1] is 6.51 µM [rising, single point].
For `O=[N+]([O-])c1ccc(N2CCCCCC2)c(S(=O)(=O)N2CCCCC2)c1`, the cell number change was -18.2%.
Take `CCOC(=O)NC(Nc1ccc(S(N)(=O)=O)cc1)(C(=O)OCC)C(F)(F)F` (stereo not drawn): the cell number change was -17.9%. The AC50 under setting [1] was 23.1 µM [falling, single point].
As to `CC1CCC(C(C)C)C(OC(=O)COC(=O)c2cc(O)ccc2N)C1` (stereo not drawn), the cell number change is -64.1%. Moreover, under setting [2], the AC50 was 32.6 µM [falling, partial curve]. Besides, the AC50 under setting [1] is 32.6 µM [falling, single point].
For the molecule `CCOc1ccc(OCC)c(NC(=O)C2CCCN(c3nc(C)cc(C)n3)C2)c1` (stereo not drawn), the AC50 by setting is: under setting [2], 4.11 µM [rising, single point]; under setting [1], 5.17 µM [rising, single point].
`COc1ccc(-c2ccc(/C=C3/C(=N)N4C=CSC4=NC3=O)o2)c([N+](=O)[O-])c1`: the cell number change came to 13.6%.
In the case of `CCOC(=O)c1ccc2[nH]c3ccccc3c2c1`, the cell number change was -30.8%. Under setting [1], the AC50 is 29.1 µM [falling, single point].
On to `O=S(=O)(N1CCCCCC1)N1CCN(S(=O)(=O)N2CCOCC2)CC1`, for which the cell number change was -30.8%. Moreover, under setting [2], the AC50 is 0.731 µM [falling, full curve]. The half-maximal activity concentration (AC50) under setting [1] is 3.66 µM [falling, full curve].
On to `COc1ccccc1OCCOc1ccc(C(=O)c2ccccc2)cc1`, for which the cell number change stood at 6.19%. In addition, the AC50 under setting [1] was 11.6 µM [rising, partial curve, poor fit].
For `COc1ccc(NC(=O)Nc2ccc(N(C)C)cc2)cc1`, the cell number change is 1.89%. The AC50 under setting [1] was 11.6 µM [rising, single point].
Regarding `CCc1cccc2c(C(=O)CN3C(=O)C(=O)N(C4CCCC4)C3=O)c[nH]c12`, the cell number change is -14.5%. The AC50 under setting [1] was 1.03 µM [falling, full curve].
On to `O=C(Nc1ccc2nc3n(c(=O)c2c1)CCCC3)c1ccccc1[N+](=O)[O-]`, for which the cell number change is -37.3%. Moreover, the AC50 under setting [2] was 4.61 µM [rising, single point]. Further, under setting [1], the AC50 was 13 µM [falling, partial curve].
Consider `CN1CCN(c2ccc(S(=O)(=O)N3CCCCC3)cc2NC(=O)Cc2ccccc2F)CC1`, for which the cell number change is -1.08%.
In the case of `Cc1nc(=O)c(-c2ccccc2)c(C)n1-c1cccc(C(=O)O)c1`, the cell number change is -6.02%. Moreover, the AC50 under setting [1] is 0.146 µM [falling, full curve].
Take `O=C(c1cc(O)c(O)c([N+](=O)[O-])c1)c1ccccc1F`: the cell number change was -35.9%. Moreover, the AC50 under setting [2] is 13 µM [falling, partial curve, poor fit]. Under setting [1], the AC50 is 23.1 µM [falling, single point].
In the case of `O=C(CCc1nc2cccnc2n1Cc1ccccc1)NCCc1ccc(Cl)cc1`, the cell number change was determined as 1.91%. For the same molecule, the AC50 under setting [1] is 14.6 µM [rising, single point].
In the case of `COc1cc2nc(SCc3ccc(C(F)(F)F)cc3)n(Cc3cccs3)c(=N)c2cc1OC`, the cell number change was -103%. In addition, the AC50 under setting [2] was 18.4 µM [falling, single point]. Under setting [1], the AC50 was 29.1 µM [falling, single point].
As to `CC(=O)Nc1ccc(Cl)cc1C(=O)O`, the cell number change is -205%. In addition, the half-maximal activity concentration (AC50) under setting [2] was 29.1 µM [falling, single point]. Further, under setting [1], the AC50 is 29.1 µM [falling, single point].
Take `COc1ccc(CC(=O)Nc2ccc3nc(C)sc3c2)cc1OC`: the cell number change stood at 16.7%. Moreover, the AC50 under setting [1] is 0.731 µM [rising, partial curve, poor fit].
For the molecule `Cc1cc(C)cc(NC(=O)CN2CCN(C(=O)C3CCCO3)CC2)c1` (stereo not drawn), the cell number change is -5.32%. Further, the AC50 under setting [1] was 5.62 µM [rising, single point].
For the molecule `O=C(Nc1cccc(F)c1)c1ccc(-c2ccccc2Cl)o1`, the cell number change came to 27.4%.
Take `CCCS(=O)(=O)N1CCC(C(=O)NCCCN(C)Cc2ccccc2)CC1`: the cell number change was 9.39%. Also, under setting [1], the AC50 is 18.4 µM [falling, partial curve].
As to `O=C(c1ccco1)N1CCN(C(=O)c2cc(=O)[nH]c3ccccc23)CC1`, the cell number change stood at 3.5%. Under setting [1], the AC50 is 13 µM [falling, partial curve, poor fit].
Consider `Cc1ccc(C)c2[nH]c(=O)c(CN(CC3CCCO3)C(=O)NC3CCCCC3)cc12` (stereo not drawn), for which the cell number change is 23%.
With `COc1ccc(OC)c(NC(=O)c2cnc3n(c2=O)CCS3)c1`, the cell number change was determined as 8.22%. Further, the AC50 under setting [2] is 0.146 µM [rising, full curve, poor fit]. The AC50 under setting [1] was 6.51 µM [rising, single point].
In the case of `Cc1ccc(-c2nc(SCC(=O)Nc3cc(C)on3)c3c(=O)n(C)c(=O)n(C)c3n2)cc1`, the cell number change was found to be 8.63%. The AC50 under setting [1] was 1.46 µM [falling, full curve].
As for `Cc1nc(-c2ccccc2)sc1C(=O)Nc1ccccc1F`, the cell number change is 32.4%. In addition, the AC50 under setting [2] is 29.1 µM [rising, single point].
Regarding `CCOC(=O)C1=CCN(Cc2ccccc2)CC1`, the cell number change came out at 11%.
For `CC(NC(=O)c1ccco1)C1COc2ccccc2O1` (stereo not drawn), the cell number change was found to be 3.48%. The AC50 under setting [2] is 1.46 µM [falling, full curve]. Besides, under setting [1], the concentration at half-maximal activity (AC50) was 1.3 µM [falling, full curve].
